Assay results: PMC8732845

Chains of the proteins cited; added tags and fusions are not shown. Lines headed by an entry give the natural chain unless they say otherwise; changes in a name come on top.
UniProt P28566: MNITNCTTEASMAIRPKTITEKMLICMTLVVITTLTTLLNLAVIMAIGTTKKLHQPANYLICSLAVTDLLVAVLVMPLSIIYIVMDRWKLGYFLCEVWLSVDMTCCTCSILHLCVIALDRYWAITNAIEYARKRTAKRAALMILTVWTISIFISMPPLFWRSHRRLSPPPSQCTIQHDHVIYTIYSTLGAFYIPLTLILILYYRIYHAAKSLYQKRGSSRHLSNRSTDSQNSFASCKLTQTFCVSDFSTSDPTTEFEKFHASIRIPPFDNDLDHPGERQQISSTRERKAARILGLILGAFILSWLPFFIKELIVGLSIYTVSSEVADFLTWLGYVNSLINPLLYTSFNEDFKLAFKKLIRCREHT
UniProt P16870: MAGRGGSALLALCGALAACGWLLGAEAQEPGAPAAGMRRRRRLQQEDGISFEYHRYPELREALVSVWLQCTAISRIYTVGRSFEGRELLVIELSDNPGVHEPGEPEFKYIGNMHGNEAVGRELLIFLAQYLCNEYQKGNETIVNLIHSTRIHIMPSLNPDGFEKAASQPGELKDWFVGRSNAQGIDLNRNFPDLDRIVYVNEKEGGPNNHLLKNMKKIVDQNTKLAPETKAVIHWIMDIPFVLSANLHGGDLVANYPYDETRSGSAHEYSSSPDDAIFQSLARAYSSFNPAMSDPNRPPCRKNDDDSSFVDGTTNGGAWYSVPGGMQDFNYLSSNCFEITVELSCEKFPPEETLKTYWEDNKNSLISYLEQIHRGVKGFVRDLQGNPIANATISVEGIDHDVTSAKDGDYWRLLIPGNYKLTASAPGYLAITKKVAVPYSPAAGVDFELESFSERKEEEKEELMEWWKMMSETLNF
UniProt Q00493: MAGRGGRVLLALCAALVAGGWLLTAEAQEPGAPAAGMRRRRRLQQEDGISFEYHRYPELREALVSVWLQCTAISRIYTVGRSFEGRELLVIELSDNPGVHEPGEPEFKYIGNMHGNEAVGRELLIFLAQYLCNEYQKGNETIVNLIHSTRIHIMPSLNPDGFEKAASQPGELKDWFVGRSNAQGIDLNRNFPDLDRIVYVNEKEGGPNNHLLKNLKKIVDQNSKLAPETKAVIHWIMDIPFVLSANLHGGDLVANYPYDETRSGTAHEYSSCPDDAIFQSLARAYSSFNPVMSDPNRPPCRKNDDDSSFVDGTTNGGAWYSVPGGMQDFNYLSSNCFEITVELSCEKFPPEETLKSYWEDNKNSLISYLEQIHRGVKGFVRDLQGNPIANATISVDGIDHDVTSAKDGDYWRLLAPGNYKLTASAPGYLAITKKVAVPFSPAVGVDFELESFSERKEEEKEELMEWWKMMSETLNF

Assays:
[1] = molecular target: 5-hydroxytryptamine receptor 1-E (5-HTR1E) on stably transfected HEK293 cells (human) (UniProt P28566); test: radioligand binding; displacement and specificity: 5-HTR1E stable HEK293 cells with 30 nM [125I] NF-α1/CPE in the presence and absence of 500 nM cold NF-α1/CPE or CPB, serum-free binding medium, 3 h on ice; only the binder purified
[2] = molecular target: human wild type full-length NF-α1/CPE (1–476) with a C-terminal V5 tag (human) (UniProt P16870); test: co-IP; called pull-down assay in the paper: HEK293 cells co-transfected with 5-HTR1E-myc and CPE-V5 or its fragments, 48 h; 1 mg lysate with anti-Myc or anti-V5-conjugated agarose overnight at 4°C; immunoblot with anti-V5 or anti-Myc
[3] = molecular target: human 5-HTR1E with a C-terminal Myc tag (human) (UniProt P28566); test: as above

Substance: Recombinant mouse NF-α1/CPE (neurotrophic factor-α1/carboxypeptidase E), unlabeled (from UniProt Q00493) (ligand)
- binding [1]: binds

Substance: human 5-HTR1E with a C-terminal Myc tag (from UniProt P28566 1-365) (receptor)
- binding [2]: binds

Substance: human wild type full-length NF-α1/CPE (1–476) with a C-terminal V5 tag (from UniProt P16870)
- binding [3]: binds

No constants are given. Whether binding was seen depends on the method and setting. A result given as binding can be weak or reduced; the word gives no strength. For part of these data: Binding seen in cells or lysates may run through a third protein.
